One experiment addresses WT-PINK1-FLAG (UniProt Q9BXM7). In words: co-IP; FLAG IP of HEK293 cells co-expressing MYC-tagged VCP domain constructs and PINK1-3xFLAG; immunoblot. A general note: In western blotting, separated proteins are transferred to a membrane and probed.
Experiment [1] addresses PINK1-GFP (UniProt Q9BXM7). The experiment is described as follows: co-IP; GFP IP (μMACS Epitope Tag Protein Isolation kit) of lysates of transfected HEK293 cells; immunoblot.
For experiment [2], the target named is PINK1-GFP (UniProt Q9BXM7). The description is as above. The source holds these as a separate data set.

Chains of the proteins cited; added tags and fusions are not shown. Residues count along the entry.
UniProt Q9BXM7, residues 78-581: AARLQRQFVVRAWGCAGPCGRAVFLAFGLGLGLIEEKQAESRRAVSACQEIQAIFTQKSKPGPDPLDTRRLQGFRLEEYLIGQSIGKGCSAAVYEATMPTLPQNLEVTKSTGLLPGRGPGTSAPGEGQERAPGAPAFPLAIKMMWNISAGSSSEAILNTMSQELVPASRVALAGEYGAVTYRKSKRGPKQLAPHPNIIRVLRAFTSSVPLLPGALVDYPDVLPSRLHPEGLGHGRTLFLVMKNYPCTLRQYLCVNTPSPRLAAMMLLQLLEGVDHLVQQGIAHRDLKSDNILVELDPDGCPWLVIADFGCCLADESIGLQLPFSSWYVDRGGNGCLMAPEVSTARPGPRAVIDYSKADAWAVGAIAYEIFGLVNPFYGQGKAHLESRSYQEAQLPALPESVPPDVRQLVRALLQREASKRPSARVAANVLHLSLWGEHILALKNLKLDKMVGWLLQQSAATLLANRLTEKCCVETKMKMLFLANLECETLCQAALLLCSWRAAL

Read-outs that look alike come from different tables or passages of the source. No constants are given. Whether binding was seen depends on the method and setting. Binding seen in cells or lysates may run through a third protein. Binding can be weak; no strength is given.

Consider “MYC-tagged VCP D1 domain (from UniProt P55072) (domain or fragment)”, for which the binding entry with WT-PINK1-FLAG is given as “binds”.
For the molecule “valosin-containing protein (VCP), endogenous in HEK293 cells (from UniProt P55072 1-806)”, the binding result in the experiment with PINK1-GFP [1] is “binds”.

B1: NSFL1C/p47, endogenous in HEK293 cells (protein, UniProt Q9UNZ2 1-370)
chain: MAAERQEALREFVAVTGAEEDRARFFLESAGWDLQIALASFYEDGGDEDIVTISQATPSSVSRGTAPSDNRVTSFRDLIHDQDEDEEEEEGQRFYAGGSERSGQQIVGPPRKKSPNELVDDLFKGAKEHGAVAVERVTKSPGETSKPRPFAGGGYRLGAAPEEESAYVAGEKRQHSSQDVHVVLKLWKSGFSLDNGELRSYQDPSNAQFLESIRRGEVPAELRRLAHGGQVNLDMEDHRDEDFVKPKGAFKAFTGEGQKLGSTAPQVLSTSSPAQQAENEAKASSSILIDESEPTTNIQIRLADGGRLVQKFNHSHRISDIRLFIVDARPAMAATSFILMTTFPNKELADESQTLKEANLLNAVIVQRLT
B1: the binding entry with PINK1-GFP [2] is given as “binds”.
